Reference: the supplement of paper PMC4604168 (melanoma cell lines)
The other results are listed elsewhere or left out. Repeats are few or missing, and single values can be far off.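 The apoptosis fraction was the count of cleaved-PARP antibody-stained nuclei relative to all DNA-stained nuclei, imaged in 1,536-well plates. Screening doses were set so most cells survived, and baseline and induced cleaved-PARP levels vary greatly across cell lines.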

Tested on: WM1716
Test: cleaved PARP positive nuclei fraction relative to DMSO control; melanoma cells; higher = more apoptosis
Conditions: library dose: low library concentration; 72 h

Structure (SMILES)	cleaved PARP positive nuclei fraction
CCCCCCCCc1ccc(CCC(N)(CO)CO)cc1 [fingolimod] + Cc1cc([N+](=O)[O-])ccc1NS(=O)(=O)c1cc(Cl)ccc1Cl [FH535] (first compound 2 µM, partner dose 1 µM)	144%
CCCCCCCCc1ccc(CCC(N)(CO)CO)cc1 [fingolimod] + Cn1cc(/C=C2\C(=O)Nc3cccnc32)c2ccccc21 [GW441756] (first compound 2 µM, partner dose 0.4 µM)	61%
Cn1cnc2c(F)c(Nc3ccc(Br)cc3Cl)c(C(=O)NOCCO)cc21 [selumetinib] + O=C(Nc1ccccc1)c1cc([N+](=O)[O-])ccc1Cl [GW9662] (first compound 0.015 µM, partner dose 2 µM)	31.4%
COc1ccc(C2=N[C@@H](c3ccc(Cl)cc3)[C@@H](c3ccc(Cl)cc3)N2C(=O)N2CCNC(=O)C2)c(OC(C)C)c1 [Nutlin-3] + COc1ccc2c(c1)CCC1C2CCC2(C)C(NCCCCCCN3C(=O)C=CC3=O)CCC12 [U73122] (first compound 0.1 µM, partner dose 0.4 µM)	388%
CS(=O)(=O)c1ccc(C(=O)Nc2ccc(Cl)c(-c3ccccn3)c2)c(Cl)c1 [vismodegib] + Cc1cc(N2CCOCC2)cc2[nH]c(-c3c(NC[C@@H](O)c4cccc(Cl)c4)cc[nH]c3=O)nc12 [BMS536924] (first compound 1 µM, partner dose 0.2 µM)	173%
CC1(C)CCC(c2ccc(Cl)cc2)=C(CN2CCN(c3ccc(C(=O)NS(=O)(=O)c4ccc(N[C@H](CCN5CCOCC5)CSc5ccccc5)c(S(=O)(=O)C(F)(F)F)c4)cc3)CC2)C1 + Cc1cc(N2CCOCC2)cc2[nH]c(-c3c(NC[C@@H](O)c4cccc(Cl)c4)cc[nH]c3=O)nc12 [BMS536924] (first compound 0.4 µM, partner dose 0.2 µM)	280%
CC(=O)O[C@@]12CO[C@@H]1C[C@H](O)[C@@]1(C)C(=O)[C@H](O)C3=C(C)[C@@H](OC(=O)[C@H](O)[C@@H](NC(=O)OC(C)(C)C)c4ccccc4)C[C@@](O)([C@@H](OC(=O)c4ccccc4)[C@H]21)C3(C)C [Docetaxel] + Cc1ccc(NC(=O)c2cccc(N(C)C)c2)cc1NC(=O)c1ccc(O)cc1 [ZM336372] (first compound 0.0001 µM, partner dose 2 µM)	336%
C[C@@H](N)c1ccc(C(=O)Nc2ccnc3[nH]ccc23)cc1 + COc1cc(N2CCC(N3CCN(C)CC3)CC2)ccc1Nc1ncc(Cl)c(Nc2ccccc2S(=O)(=O)C(C)C)n1 [NVP-TAE684] (first compound 0.4 µM, partner dose 0.08 µM)	84%
CCN(CC)CCNC(=O)c1c(C)[nH]c(/C=C2\C(=O)Nc3ccc(F)cc32)c1C [sunitinib] + O=c1cc(-c2cccc3c2Sc2ccccc2S3)oc(N2CCOCC2)c1 [KU55933] (first compound 0.4 µM, partner dose 1 µM)	69.5%
C[C@]1(O)C[C@@H](c2nc(-c3ccc4ccc(-c5ccccc5)nc4c3)c3c(N)nccn32)C1 + O=C(Nc1ccccc1)c1cc([N+](=O)[O-])ccc1Cl [GW9662] (first compound 0.4 µM, partner dose 2 µM)	179%
CCCCCCCCc1ccc(CCC(N)(CO)CO)cc1 [fingolimod] + NCC(=O)Nc1ccc(-n2nc(C(F)(F)F)cc2-c2ccc3c(ccc4ccccc43)c2)cc1 [OSU03012] (first compound 2 µM, partner dose 1 µM)	174%
CC1(C)CCC(c2ccc(Cl)cc2)=C(CN2CCN(c3ccc(C(=O)NS(=O)(=O)c4ccc(N[C@H](CCN5CCOCC5)CSc5ccccc5)c(S(=O)(=O)C(F)(F)F)c4)cc3)CC2)C1 + CO[C@@H]1[C@H](N(C)C(=O)c2ccccc2)C[C@H]2O[C@]1(C)n1c3ccccc3c3c4c(c5c6ccccc6n2c5c31)C(=O)NC4 [Midostaurin] (first compound 0.4 µM, partner dose 0.08 µM)	822%
C[C@]1(O)C[C@@H](c2nc(-c3ccc4ccc(-c5ccccc5)nc4c3)c3c(N)nccn32)C1 + Cc1cc([N+](=O)[O-])ccc1NS(=O)(=O)c1cc(Cl)ccc1Cl [FH535] (first compound 0.4 µM, partner dose 1 µM)	27.6%

2 entries from above, comma-delimited:
Structure (SMILES),cleaved PARP positive nuclei fraction
"CC1(C)CCC(c2ccc(Cl)cc2)=C(CN2CCN(c3ccc(C(=O)NS(=O)(=O)c4ccc(N[C@H](CCN5CCOCC5)CSc5ccccc5)c(S(=O)(=O)C(F)(F)F)c4)cc3)CC2)C1 + Cc1cc(N2CCOCC2)cc2[nH]c(-c3c(NC[C@@H](O)c4cccc(Cl)c4)cc[nH]c3=O)nc12 [BMS536924] (first compound 0.4 µM, partner dose 0.2 µM)",280%
"CC(=O)O[C@@]12CO[C@@H]1C[C@H](O)[C@@]1(C)C(=O)[C@H](O)C3=C(C)[C@@H](OC(=O)[C@H](O)[C@@H](NC(=O)OC(C)(C)C)c4ccccc4)C[C@@](O)([C@@H](OC(=O)c4ccccc4)[C@H]21)C3(C)C [Docetaxel] + Cc1ccc(NC(=O)c2cccc(N(C)C)c2)cc1NC(=O)c1ccc(O)cc1 [ZM336372] (first compound 0.0001 µM, partner dose 2 µM)",336%

Tested on: WM1745
Test: as above
Conditions: library dose: low library concentration; 72 h

Structure (SMILES)	cleaved PARP positive nuclei fraction
C[C@@H](N)c1ccc(C(=O)Nc2ccnc3[nH]ccc23)cc1 + Cc1cc([N+](=O)[O-])ccc1NS(=O)(=O)c1cc(Cl)ccc1Cl [FH535] (first compound 0.4 µM, partner dose 1 µM)	110%
CS(=O)(=O)c1ccc(C(=O)Nc2ccc(Cl)c(-c3ccccn3)c2)c(Cl)c1 [vismodegib] + O=S(=O)(c1ccccc1)N(CC(F)(F)F)c1ccc(C(O)(C(F)(F)F)C(F)(F)F)cc1 [T0901317] (first compound 1 µM, partner dose 1.4 µM)	105%
CCN(CC)CCNC(=O)c1c(C)[nH]c(/C=C2\C(=O)Nc3ccc(F)cc32)c1C [sunitinib] + COc1cc(N2CCC(N3CCN(C)CC3)CC2)ccc1Nc1ncc(Cl)c(Nc2ccccc2S(=O)(=O)C(C)C)n1 [NVP-TAE684] (first compound 0.4 µM, partner dose 0.08 µM)	127%
CC1(C)CCC(c2ccc(Cl)cc2)=C(CN2CCN(c3ccc(C(=O)NS(=O)(=O)c4ccc(N[C@H](CCN5CCOCC5)CSc5ccccc5)c(S(=O)(=O)C(F)(F)F)c4)cc3)CC2)C1 + CC(C)CCN1c2nc(Nc3cc(F)c(O)c(F)c3)ncc2N(C)C(=O)C1C [BID1870] (first compound 0.4 µM, partner dose 0.2 µM)	250%
C[C@@H](N)c1ccc(C(=O)Nc2ccnc3[nH]ccc23)cc1 + CN(NC(=O)CC(=O)NN(C)C(=S)c1ccccc1)C(=S)c1ccccc1 [STA4783] (first compound 0.4 µM, partner dose 0.006 µM)	296%
NC1(c2ccc(-c3nc4ccn5c(=O)[nH]nc5c4cc3-c3ccccc3)cc2)CCC1 + COc1cc(N2CCC(N3CCN(C)CC3)CC2)ccc1Nc1ncc(Cl)c(Nc2ccccc2S(=O)(=O)C(C)C)n1 [NVP-TAE684] (first compound 0.4 µM, partner dose 0.08 µM)	90.5%
NC(=O)c1ccc(N(C(N)=O)c2c(F)cccc2F)nc1-c1ccc(F)cc1F + CCCCCCCCCCCC1=C(O)C(=O)C=C(O)C1=O [Embelin] (first compound 0.4 µM, partner dose 1.2 µM)	166%
CS(=O)(=O)c1ccc(C(=O)Nc2ccc(Cl)c(-c3ccccn3)c2)c(Cl)c1 [vismodegib] + NCC(=O)Nc1ccc(-n2nc(C(F)(F)F)cc2-c2ccc3c(ccc4ccccc43)c2)cc1 [OSU03012] (first compound 1 µM, partner dose 1 µM)	77.6%
NC1(c2ccc(-c3nc4ccn5c(=O)[nH]nc5c4cc3-c3ccccc3)cc2)CCC1 + O=S(=O)(c1ccccc1)N(CC(F)(F)F)c1ccc(C(O)(C(F)(F)F)C(F)(F)F)cc1 [T0901317] (first compound 0.4 µM, partner dose 1.4 µM)	98.1%
NC(=O)c1ccc(N(C(N)=O)c2c(F)cccc2F)nc1-c1ccc(F)cc1F + CC(C)(C)c1cnc(CSc2cnc(NC(=O)C3CCNCC3)s2)o1 [SNS-032] (first compound 0.4 µM, partner dose 0.01 µM)	97.3%
NC(=O)c1ccc(N(C(N)=O)c2c(F)cccc2F)nc1-c1ccc(F)cc1F + CO[C@@H]1[C@H](N(C)C(=O)c2ccccc2)C[C@H]2O[C@]1(C)n1c3ccccc3c3c4c(c5c6ccccc6n2c5c31)C(=O)NC4 [Midostaurin] (first compound 0.4 µM, partner dose 0.08 µM)	100%
Cn1cnc2c(F)c(Nc3ccc(Br)cc3Cl)c(C(=O)NOCCO)cc21 [selumetinib] + COc1cc2c(Oc3ccc4[nH]c(C)cc4c3F)ncnc2cc1OCCCN1CCCC1 [cediranib] (first compound 0.015 µM, partner dose 0.4 µM)	130%
C[C@]1(O)C[C@@H](c2nc(-c3ccc4ccc(-c5ccccc5)nc4c3)c3c(N)nccn32)C1 + c1cc(-c2cnn3cc(-c4ccc(OCCN5CCCCC5)cc4)cnc23)ccn1 [Dorsomorphin] (first compound 0.4 µM, partner dose 0.4 µM)	111%
CC1(C)CCC(c2ccc(Cl)cc2)=C(CN2CCN(c3ccc(C(=O)NS(=O)(=O)c4ccc(N[C@H](CCN5CCOCC5)CSc5ccccc5)c(S(=O)(=O)C(F)(F)F)c4)cc3)CC2)C1 + NCC(=O)Nc1ccc(-n2nc(C(F)(F)F)cc2-c2ccc3c(ccc4ccccc43)c2)cc1 [OSU03012] (first compound 0.4 µM, partner dose 1 µM)	671%
CN(c1ncccc1CNc1nc(Nc2ccc3c(c2)CC(=O)N3)ncc1C(F)(F)F)S(C)(=O)=O + O=C(O)c1ccc(-c2c[nH]c3ncc(-c4ccccc4)cc23)cc1C1CCCC1 [GSK650394] (first compound 0.08 µM, partner dose 0.16 µM)	110%
NC(=O)c1ccc(N(C(N)=O)c2c(F)cccc2F)nc1-c1ccc(F)cc1F + COc1ccc(-c2ccc3c(N4CCOCC4)nc(N4C[C@@H](C)O[C@@H](C)C4)nc3n2)cc1CO [KU0063794] (first compound 0.4 µM, partner dose 0.02 µM)	98.1%
